Source: paper PMC6110521
Results are given in words; binding and its absence hold for the method and conditions named. In cells and extracts the contact can be indirect. These calls come from enrichment with a bait or labelling near it, and not all partners need be listed. Where a sequence is shown, tags or fusion partners need not be part of it.

Protein sequences, listed by entry. Tags and fused reporters are not part of them.
UniProt O09106: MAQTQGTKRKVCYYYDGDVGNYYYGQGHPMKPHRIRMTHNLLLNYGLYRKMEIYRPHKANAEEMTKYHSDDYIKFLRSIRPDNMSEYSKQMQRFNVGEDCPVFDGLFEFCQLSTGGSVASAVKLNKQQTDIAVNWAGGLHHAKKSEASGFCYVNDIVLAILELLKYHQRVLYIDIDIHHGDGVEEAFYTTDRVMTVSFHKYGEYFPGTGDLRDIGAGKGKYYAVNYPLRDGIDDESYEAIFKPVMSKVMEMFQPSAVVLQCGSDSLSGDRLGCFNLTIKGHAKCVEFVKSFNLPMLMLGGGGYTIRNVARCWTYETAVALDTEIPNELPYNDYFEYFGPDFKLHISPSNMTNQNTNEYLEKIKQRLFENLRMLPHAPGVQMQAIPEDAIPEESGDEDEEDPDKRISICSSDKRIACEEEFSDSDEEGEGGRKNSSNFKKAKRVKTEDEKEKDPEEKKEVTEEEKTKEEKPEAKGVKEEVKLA

Target: T1, flag-tagged SMYD4 (SMYD4^flag), wild-type human, overexpressed in HL-1 cells (human) (UniProt Q8IYR2)
T1 sequence: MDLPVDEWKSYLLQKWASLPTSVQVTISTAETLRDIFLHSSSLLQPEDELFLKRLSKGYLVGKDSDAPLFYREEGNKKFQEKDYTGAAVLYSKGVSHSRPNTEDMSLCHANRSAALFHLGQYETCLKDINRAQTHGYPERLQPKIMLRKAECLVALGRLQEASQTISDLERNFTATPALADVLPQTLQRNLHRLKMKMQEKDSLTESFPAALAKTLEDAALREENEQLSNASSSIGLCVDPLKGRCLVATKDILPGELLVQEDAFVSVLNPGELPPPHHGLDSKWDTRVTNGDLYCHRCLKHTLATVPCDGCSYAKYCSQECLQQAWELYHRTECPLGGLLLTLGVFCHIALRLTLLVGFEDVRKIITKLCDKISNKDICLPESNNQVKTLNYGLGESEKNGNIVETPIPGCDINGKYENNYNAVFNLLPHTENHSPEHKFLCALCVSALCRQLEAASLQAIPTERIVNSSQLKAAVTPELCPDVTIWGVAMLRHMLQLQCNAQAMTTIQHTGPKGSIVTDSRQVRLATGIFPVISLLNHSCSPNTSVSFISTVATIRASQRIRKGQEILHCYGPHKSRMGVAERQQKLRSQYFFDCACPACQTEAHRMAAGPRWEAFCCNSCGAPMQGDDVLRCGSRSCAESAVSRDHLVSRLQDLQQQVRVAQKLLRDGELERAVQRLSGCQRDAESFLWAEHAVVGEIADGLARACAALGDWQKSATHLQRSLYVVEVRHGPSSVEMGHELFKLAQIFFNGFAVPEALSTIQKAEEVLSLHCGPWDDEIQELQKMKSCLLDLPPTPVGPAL
Experiment: affinity purification with mass spectrometry; SMYD4^flag overexpressed in HL-1 cells, 48 h after transfection; lysate in RIPA with 1 mM PMSF and protease inhibitors; immunoprecipitation with anti-Flag affinity gel, SDS-PAGE, silver staining, mass spectrometry

With “histone deacetylase 1 (HDAC1), in HL-1 cells (from UniProt O09106 1-482) (enzyme)” the binding was “binds”.
